Test results reported in publication doi:10.1101/2022.02.01.475276.
No constants are given. Whether binding was seen depends on the method and setting. In cells and extracts the contact can be indirect. These calls come from enrichment with a bait or labelling near it, and not all partners need be listed.

Amino acid sequences for entries named in this document (tags omitted). A change or cut given only in a name is not applied to a line headed by its entry. Chains listed by the source or under a name are the forms on record and can include a tag or linker. Residues count along the entry.
UniProt P81133: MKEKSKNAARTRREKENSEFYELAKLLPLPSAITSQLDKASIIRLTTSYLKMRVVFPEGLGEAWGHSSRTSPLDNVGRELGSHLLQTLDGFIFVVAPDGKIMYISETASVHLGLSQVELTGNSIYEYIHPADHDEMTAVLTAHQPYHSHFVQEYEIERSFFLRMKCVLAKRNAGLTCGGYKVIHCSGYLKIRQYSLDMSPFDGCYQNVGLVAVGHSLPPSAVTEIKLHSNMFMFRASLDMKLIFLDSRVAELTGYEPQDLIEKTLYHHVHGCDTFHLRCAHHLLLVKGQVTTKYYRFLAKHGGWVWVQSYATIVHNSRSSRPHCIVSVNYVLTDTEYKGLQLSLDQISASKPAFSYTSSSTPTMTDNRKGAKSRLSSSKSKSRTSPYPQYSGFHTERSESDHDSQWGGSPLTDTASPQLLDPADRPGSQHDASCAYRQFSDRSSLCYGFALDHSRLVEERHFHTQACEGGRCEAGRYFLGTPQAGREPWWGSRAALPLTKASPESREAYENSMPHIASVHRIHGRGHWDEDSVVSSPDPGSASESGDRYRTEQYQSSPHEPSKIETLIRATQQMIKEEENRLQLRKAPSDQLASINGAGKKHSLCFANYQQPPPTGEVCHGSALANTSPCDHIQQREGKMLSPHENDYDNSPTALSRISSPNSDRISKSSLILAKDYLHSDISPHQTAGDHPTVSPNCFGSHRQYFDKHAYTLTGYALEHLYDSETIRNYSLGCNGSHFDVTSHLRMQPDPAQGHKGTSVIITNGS
hSim1.3xFlag2xStrep(1-348): residues 1-348 of P81133
hSim1(R171H).3xFlag2xStrep(1-348) (P81133, form named): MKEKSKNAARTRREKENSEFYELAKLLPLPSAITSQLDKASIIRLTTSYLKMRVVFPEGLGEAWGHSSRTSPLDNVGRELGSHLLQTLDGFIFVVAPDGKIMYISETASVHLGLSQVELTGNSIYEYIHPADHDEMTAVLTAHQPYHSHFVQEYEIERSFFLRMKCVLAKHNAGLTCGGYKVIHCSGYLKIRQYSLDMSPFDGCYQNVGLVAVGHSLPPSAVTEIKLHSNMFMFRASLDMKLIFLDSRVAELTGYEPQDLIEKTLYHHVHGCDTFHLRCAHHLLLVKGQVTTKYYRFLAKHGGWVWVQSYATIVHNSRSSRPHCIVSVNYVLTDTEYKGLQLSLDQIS
UniProt P27540: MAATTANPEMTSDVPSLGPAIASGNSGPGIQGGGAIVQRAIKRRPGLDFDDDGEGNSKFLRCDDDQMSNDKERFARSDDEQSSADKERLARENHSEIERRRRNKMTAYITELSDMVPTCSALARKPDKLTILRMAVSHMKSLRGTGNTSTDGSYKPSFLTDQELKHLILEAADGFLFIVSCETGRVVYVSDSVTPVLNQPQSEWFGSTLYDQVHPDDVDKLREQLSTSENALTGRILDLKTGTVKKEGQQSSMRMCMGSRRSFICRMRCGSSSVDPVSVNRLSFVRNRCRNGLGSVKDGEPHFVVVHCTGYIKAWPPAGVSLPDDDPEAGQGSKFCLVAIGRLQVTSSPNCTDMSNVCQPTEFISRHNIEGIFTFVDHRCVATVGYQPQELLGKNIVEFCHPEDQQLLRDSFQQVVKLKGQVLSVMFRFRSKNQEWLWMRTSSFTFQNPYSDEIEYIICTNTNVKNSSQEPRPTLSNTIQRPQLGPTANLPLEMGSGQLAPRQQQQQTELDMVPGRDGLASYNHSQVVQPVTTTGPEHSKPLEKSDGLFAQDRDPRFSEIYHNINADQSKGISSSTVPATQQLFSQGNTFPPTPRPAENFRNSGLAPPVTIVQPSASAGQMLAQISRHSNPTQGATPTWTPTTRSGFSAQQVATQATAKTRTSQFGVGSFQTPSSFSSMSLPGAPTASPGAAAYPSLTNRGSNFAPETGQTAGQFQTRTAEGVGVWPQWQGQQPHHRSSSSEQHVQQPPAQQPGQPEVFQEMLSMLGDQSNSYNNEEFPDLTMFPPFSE
UniProt Q9HBZ2, residues 1-455: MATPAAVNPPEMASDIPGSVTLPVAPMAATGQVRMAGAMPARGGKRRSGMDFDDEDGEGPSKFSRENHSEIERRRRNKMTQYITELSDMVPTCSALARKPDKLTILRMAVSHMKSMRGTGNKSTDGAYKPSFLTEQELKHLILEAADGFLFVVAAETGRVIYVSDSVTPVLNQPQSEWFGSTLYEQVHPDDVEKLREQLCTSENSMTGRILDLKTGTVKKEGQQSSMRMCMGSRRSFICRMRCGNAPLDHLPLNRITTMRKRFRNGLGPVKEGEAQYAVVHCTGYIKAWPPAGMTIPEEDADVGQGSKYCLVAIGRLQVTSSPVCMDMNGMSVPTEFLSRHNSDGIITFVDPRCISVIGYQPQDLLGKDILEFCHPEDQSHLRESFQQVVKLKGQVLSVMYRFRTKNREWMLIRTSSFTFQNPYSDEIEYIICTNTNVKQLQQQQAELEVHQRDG

Tests used:
Experiment in all cases: affinity purification with mass spectrometry
[1] = molecular target: hSIM1-2xHA-3xFlag (human) (UniProt P81133)
[2] = molecular target: hSIM1.R171H-2xHA-3xFlag (human) (UniProt P81133)
[3] = molecular target: hSim1(R171H).3xFlag2xStrep(1-348) (human) (UniProt P81133)
[4] = molecular target: hSim1.3xFlag2xStrep(1-348) (human) (UniProt P81133)

Measured: binding

ARNT (endogenous, HEK293T) (from UniProt P27540 1-789)
binds: all assays above

hARNT2(1-455)-Myc (from UniProt Q9HBZ2 1-455) (domain or fragment)
binds: [3] | [4]
